These are yes or no findings as the source states them, for the method shown. Binding seen in cells or lysates may run through a third protein. These calls come from enrichment with a bait or labelling near it, and not all partners need be listed. A no says only that the protein was not detected with the bait.
T1: methylenetetrahydrofolate dehydrogenase 2 (MTHFD2) (human (endogenous in HCT116 and H358)) (UniProt P13995)
T1 sequence: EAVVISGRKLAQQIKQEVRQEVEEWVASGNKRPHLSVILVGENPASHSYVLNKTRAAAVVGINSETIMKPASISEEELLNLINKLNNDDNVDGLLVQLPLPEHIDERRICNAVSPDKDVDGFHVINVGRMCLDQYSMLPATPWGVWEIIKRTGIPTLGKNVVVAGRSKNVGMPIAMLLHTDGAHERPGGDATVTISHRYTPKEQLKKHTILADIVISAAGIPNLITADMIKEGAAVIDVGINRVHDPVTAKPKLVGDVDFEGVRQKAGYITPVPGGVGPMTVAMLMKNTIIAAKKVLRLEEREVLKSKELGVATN

The chains behind the UniProt entries cited, without tags or fusion partners.
UniProt P12270: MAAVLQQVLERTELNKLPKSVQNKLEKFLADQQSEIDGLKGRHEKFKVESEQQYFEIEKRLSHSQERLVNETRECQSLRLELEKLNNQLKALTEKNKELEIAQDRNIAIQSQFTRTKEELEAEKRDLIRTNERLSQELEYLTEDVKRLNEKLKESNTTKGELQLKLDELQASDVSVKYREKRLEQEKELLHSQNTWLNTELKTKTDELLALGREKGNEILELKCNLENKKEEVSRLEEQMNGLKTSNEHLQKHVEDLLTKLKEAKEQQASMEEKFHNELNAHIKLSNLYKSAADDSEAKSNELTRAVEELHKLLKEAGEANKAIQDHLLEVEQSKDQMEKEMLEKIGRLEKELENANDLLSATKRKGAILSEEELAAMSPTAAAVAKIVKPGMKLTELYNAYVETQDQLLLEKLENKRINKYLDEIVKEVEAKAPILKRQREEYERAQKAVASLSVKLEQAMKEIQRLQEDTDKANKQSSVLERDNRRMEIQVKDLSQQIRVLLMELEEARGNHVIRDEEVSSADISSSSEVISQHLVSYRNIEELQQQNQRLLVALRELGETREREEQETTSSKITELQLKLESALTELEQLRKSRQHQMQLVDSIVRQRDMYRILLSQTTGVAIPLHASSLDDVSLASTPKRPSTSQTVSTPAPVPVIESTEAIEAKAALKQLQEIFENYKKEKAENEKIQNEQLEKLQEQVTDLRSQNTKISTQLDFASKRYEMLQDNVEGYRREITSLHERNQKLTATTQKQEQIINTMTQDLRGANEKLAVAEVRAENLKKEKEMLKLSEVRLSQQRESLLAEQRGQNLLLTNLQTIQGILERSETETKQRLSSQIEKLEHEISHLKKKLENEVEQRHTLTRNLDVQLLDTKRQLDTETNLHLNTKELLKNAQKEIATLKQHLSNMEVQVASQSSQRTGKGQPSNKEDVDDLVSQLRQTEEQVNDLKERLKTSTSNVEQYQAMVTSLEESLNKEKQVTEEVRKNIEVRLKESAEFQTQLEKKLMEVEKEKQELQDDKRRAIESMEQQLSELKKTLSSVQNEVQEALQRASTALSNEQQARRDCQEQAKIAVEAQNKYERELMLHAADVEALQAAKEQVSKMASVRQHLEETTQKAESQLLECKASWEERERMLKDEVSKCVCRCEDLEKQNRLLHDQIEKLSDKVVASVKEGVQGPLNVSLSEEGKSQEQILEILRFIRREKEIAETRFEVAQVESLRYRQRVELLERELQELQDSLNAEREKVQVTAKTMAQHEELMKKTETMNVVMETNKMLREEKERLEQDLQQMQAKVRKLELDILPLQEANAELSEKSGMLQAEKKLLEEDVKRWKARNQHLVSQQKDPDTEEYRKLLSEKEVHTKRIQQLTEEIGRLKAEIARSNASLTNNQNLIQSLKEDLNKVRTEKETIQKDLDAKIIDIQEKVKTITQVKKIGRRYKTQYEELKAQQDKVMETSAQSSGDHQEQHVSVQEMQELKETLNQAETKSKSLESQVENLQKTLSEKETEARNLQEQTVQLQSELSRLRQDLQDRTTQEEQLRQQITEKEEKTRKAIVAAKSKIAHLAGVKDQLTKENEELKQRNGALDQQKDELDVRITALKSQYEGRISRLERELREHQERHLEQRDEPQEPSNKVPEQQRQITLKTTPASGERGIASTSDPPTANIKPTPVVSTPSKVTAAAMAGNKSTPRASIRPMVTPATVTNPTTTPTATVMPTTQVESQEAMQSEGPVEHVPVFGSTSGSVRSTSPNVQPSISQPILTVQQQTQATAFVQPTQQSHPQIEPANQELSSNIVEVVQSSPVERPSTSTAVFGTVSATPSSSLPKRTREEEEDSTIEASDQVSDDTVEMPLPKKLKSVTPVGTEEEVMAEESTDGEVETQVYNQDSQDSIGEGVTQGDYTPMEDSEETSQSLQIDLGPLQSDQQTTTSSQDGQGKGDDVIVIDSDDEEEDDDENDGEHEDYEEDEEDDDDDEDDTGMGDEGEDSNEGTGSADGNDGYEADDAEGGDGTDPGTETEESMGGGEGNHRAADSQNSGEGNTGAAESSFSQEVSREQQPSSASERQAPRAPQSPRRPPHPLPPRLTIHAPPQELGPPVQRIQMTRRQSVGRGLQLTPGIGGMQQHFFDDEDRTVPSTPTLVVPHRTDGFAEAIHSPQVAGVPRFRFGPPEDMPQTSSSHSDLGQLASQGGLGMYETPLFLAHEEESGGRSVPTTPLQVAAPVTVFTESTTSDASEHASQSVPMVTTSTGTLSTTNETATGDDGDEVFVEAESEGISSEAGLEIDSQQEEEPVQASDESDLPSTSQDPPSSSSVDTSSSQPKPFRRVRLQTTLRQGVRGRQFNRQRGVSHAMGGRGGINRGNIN
UniProt P42898: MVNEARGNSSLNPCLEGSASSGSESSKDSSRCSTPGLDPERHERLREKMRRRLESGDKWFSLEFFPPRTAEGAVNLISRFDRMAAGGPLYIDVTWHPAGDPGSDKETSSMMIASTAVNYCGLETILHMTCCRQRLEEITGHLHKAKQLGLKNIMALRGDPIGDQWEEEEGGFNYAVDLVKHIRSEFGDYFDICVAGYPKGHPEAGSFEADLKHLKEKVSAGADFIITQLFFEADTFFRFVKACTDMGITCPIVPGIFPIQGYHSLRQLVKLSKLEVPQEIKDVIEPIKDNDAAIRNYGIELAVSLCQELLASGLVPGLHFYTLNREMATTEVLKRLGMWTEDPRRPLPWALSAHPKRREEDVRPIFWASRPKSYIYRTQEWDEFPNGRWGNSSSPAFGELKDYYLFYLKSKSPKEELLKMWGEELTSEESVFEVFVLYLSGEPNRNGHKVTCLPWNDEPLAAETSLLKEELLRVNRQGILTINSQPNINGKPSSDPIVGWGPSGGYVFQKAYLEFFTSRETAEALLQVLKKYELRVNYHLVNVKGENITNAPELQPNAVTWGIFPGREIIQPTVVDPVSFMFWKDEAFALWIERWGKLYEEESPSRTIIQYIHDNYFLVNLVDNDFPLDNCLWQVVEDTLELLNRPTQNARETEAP
UniProt Q9UGJ0: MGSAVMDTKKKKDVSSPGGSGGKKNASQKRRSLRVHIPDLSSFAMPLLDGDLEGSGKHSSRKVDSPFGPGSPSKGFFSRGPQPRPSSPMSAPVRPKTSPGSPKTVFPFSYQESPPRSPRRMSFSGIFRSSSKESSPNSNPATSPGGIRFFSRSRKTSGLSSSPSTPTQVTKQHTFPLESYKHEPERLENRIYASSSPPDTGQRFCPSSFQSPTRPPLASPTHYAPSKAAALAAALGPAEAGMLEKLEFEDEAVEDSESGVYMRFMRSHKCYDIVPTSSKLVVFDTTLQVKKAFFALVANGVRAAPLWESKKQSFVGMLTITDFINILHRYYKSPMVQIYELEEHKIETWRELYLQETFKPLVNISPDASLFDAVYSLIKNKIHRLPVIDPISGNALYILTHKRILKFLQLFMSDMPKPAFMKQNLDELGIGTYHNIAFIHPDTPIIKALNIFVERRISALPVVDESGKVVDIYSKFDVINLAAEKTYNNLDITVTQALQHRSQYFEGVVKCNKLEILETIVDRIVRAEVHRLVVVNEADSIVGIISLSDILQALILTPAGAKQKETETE
UniProt P54619: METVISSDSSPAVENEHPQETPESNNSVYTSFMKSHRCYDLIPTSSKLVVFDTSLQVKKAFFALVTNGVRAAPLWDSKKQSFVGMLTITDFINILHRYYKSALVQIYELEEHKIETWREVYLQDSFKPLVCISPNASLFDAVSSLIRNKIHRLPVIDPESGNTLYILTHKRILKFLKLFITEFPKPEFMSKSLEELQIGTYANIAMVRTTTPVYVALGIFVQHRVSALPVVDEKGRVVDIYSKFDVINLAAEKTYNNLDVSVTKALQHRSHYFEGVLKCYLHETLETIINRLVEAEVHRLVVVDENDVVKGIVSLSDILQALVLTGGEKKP
UniProt Q99873: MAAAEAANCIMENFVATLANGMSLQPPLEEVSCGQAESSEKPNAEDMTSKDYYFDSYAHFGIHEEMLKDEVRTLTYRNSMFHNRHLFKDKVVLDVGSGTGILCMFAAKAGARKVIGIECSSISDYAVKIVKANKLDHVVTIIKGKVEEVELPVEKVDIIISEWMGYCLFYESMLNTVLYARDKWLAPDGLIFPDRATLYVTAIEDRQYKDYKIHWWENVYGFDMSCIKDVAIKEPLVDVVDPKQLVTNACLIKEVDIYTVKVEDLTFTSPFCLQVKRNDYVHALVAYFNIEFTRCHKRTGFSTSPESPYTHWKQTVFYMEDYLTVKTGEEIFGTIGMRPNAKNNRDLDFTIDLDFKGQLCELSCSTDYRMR

B1: N-Lysine Methyltransferase KMT5A (enzyme, UniProt Q9NQR1 1-393)
chain: MGEGGAAAALVAAAAAAAAAAAAVVAGQRRRRLGRRARCHGPGRAAGGKMSKPCAVEAAAAAVAATAPGPEMVERRGPGRPRTDGENVFTGQSKIYSYMSPNKCSGMRFPLQEENSVTHHEVKCQGKPLAGIYRKREEKRNAGNAVRSAMKSEEQKIKDARKGPLVPFPNQKSEAAEPPKTPPSSCDSTNAAIAKQALKKPIKGKQAPRKKAQGKTQQNRKLTDFYPVRRSSRKSKAELQSEERKRIDELIESGKEEGMKIDLIDGKGRGVIATKQFSRGDFVVEYHGDLIEITDAKKREALYAQDPSTGCYMYYFQYLSKTYCVDATRETNRLGRLINHSKCGNCQTKLHDIDGVPHLILIASRDIAAGEELLYDYGDRSKASIEAHPWLKH
B2: MAD1L1 (protein, UniProt Q9Y6D9 1-718)
chain: MEDLGENTMVLSTLRSLNNFISQRVEGGSGLDISTSAPGSLQMQYQQSMQLEERAEQIRSKSHLIQVEREKMQMELSHKRARVELERAASTSARNYEREVDRNQELLTRIRQLQEREAGAEEKMQEQLERNRQCQQNLDAASKRLREKEDSLAQAGETINALKGRISELQWSVMDQEMRVKRLESEKQELQEQLDLQHKKCQEANQKIQELQASQEARADHEQQIKDLEQKLSLQEQDAAIVKNMKSELVRLPRLERELKQLREESAHLREMRETNGLLQEELEGLQRKLGRQEKMQETLVGLELENERLLAKLQSWERLDQTMGLSIRTPEDLSRFVVELQQRELALKDKNSAVTSSARGLEKARQQLQEELRQVSGQLLEERKKRETHEALARRLQKRVLLLTKERDGMRAILGSYDSELTPAEYSPQLTRRMREAEDMVQKVHSHSAEMEAQLSQALEELGGQKQRADMLEMELKMLKSQSSSAEQSFLFSREEADTLRLKVEELEGERSRLEEEKRMLEAQLERRALQGDYDQSRTKVLHMSLNPTSVARQRLREDHSQLQAECERLRGLLRAMERGGTVPADLEAAAASLPSSKEVAELKKQVESAELKNQRLKEVFQTKIQEFRKACYTLTGYQIDITTENQYRLTSLYAEHPGDCLIFKATSPSGSKMQLLETEFSHTVGELIEVHLRRQDSIPAFLSSLTLELFSRQTVA
B3: Kinesin KIF4A (protein, UniProt O95239 1-1232)
chain: MKEEVKGIPVRVALRCRPLVPKEISEGCQMCLSFVPGEPQVVVGTDKSFTYDFVFDPSTEQEEVFNTAVAPLIKGVFKGYNATVLAYGQTGSGKTYSMGGAYTAEQENEPTVGVIPRVIQLLFKEIDKKSDFEFTLKVSYLEIYNEEILDLLCPSREKAQINIREDPKEGIKIVGLTEKTVLVALDTVSCLEQGNNSRTVASTAMNSQSSRSHAIFTISLEQRKKSDKNSSFRSKLHLVDLAGSERQKKTKAEGDRLKEGININRGLLCLGNVISALGDDKKGGFVPYRDSKLTRLLQDSLGGNSHTLMIACVSPADSNLEETLNTLRYADRARKIKNKPIVNIDPQTAELNHLKQQVQQLQVLLLQAHGGTLPGSITVEPSENLQSLMEKNQSLVEENEKLSRGLSEAAGQTAQMLERIILTEQANEKMNAKLEELRQHAACKLDLQKLVETLEDQELKENVEIICNLQQLITQLSDETVACMAAAIDTAVEQEAQVETSPETSRSSDAFTTQHALRQAQMSKELVELNKALALKEALARKMTQNDSQLQPIQYQYQDNIKELELEVINLQKEKEELVLELQTAKKDANQAKLSERRRKRLQELEGQIADLKKKLNEQSKLLKLKESTERTVSKLNQEIRMMKNQRVQLMRQMKEDAEKFRQWKQKKDKEVIQLKERDRKRQYELLKLERNFQKQSNVLRRKTEEAAAANKRLKDALQKQREVADKRKETQSRGMEGTAARVKNWLGNEIEVMVSTEEAKRHLNDLLEDRKILAQDVAQLKEKKESGENPPPKLRRRTFSLTEVRGQVSESEDSITKQIESLETEMEFRSAQIADLQQKLLDAESEDRPKQRWENIATILEAKCALKYLIGELVSSKIQVSKLESSLKQSKTSCADMQKMLFEERNHFAEIETELQAELVRMEQQHQEKVLYLLSQLQQSQMAEKQLEESVSEKEQQLLSTLKCQDEELEKMREVCEQNQQLLRENEIIKQKLTLLQVASRQKHLPKDTLLSPDSSFEYVPPKPKPSRVKEKFLEQSMDIEDLKYCSEHSVNEHEDGDGDDDEGDDEEWKPTKLVKVSRKNIQGCSCKGWCGNKQCGCRKQKSDCGVDCCCDPTKCRNRQQGKDSLGTVERTQDSEGSFKLEDPTEVTPGLSFFNPVCATPNSKILKEMCDVEQVLSKKTPPAPSPFDLPELKHVATEYQENKAPGKKKKRALASNTSFFSGCSPIEEEAH

What follows are molecules tested against T1, methylenetetrahydrofolate dehydrogenase 2 (MTHFD2) (human (endogenous in HCT116 and H358)) (assay: affinity purification with mass spectrometry).

| binding | Molecule |
| --- | --- |
| binds | Nucleoprotein TPR (from UniProt P12270 1-2363) |
| no binding | Methylenetetrahydrofolate Reductase (MTHFR) (from UniProt P42898 1-656) (enzyme) |
| binds | PRKAG2 (from UniProt Q9UGJ0 1-569) |
| binds | PRKAG1 (from UniProt P54619 1-331) |
| binds | Protein Arginine N-Methyltransferase 1 (PRMT1) (from UniProt Q99873 1-371) (enzyme) |
| binds | B1 |
| binds | B2 |
| binds | B3 |

Source: doi:10.1101/2023.06.01.543193
